Laboratory results: paper PMC13138344, “Embryonic stem cell factors DPPA2/4 amplify active H3K4me3–H2AK119ub chromatin domains in non-small cell lung cancer” (Genes & Development, 2026)
Where two headings read alike, the source gives them in different places. Results are given in words; binding and its absence hold for the method and conditions named. In cells and extracts the contact can be indirect. These calls come from enrichment with a bait or labelling near it, and not all partners need be listed.

Sequences of proteins named here, by UniProt entry; tags and fusion partners are left off.
UniProt Q9Y483: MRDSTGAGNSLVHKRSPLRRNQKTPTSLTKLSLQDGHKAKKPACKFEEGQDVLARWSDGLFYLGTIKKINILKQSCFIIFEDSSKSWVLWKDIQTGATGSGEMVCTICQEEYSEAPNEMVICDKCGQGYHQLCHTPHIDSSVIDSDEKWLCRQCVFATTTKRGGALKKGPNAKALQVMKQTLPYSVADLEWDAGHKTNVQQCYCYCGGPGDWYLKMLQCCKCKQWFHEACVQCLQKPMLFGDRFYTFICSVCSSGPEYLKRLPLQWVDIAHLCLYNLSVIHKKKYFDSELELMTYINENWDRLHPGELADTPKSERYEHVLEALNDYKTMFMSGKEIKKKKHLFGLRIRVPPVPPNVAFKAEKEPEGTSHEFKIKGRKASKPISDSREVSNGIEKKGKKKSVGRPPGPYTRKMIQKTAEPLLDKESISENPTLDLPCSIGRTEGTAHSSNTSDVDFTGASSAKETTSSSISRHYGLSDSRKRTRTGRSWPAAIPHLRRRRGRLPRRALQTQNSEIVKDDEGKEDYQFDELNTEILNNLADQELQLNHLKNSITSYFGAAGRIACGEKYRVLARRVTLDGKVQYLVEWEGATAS
UniProt Q9HC52: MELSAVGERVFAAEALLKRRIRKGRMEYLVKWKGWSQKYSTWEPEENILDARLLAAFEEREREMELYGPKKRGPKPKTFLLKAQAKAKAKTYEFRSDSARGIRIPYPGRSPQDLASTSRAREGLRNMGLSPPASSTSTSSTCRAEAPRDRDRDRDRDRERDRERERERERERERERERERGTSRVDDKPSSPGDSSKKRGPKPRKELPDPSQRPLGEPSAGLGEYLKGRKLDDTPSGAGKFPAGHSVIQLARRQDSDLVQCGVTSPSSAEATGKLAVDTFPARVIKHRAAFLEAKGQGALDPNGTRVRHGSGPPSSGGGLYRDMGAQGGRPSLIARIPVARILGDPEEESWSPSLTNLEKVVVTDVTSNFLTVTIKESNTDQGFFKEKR

How the values were obtained:
[1] = molecular target: T1, developmental pluripotency-associated 2 (DPPA2) (human (endogenous in NCI-H661)) (UniProt Q7Z7J5); assay: affinity purification with mass spectrometry; IP of endogenous DPPA2 or DPPA4 from NCI-H661 whole-cell lysates, species-matched IgG IP control, label-free quantitation, n = 4 per condition
T1 sequence: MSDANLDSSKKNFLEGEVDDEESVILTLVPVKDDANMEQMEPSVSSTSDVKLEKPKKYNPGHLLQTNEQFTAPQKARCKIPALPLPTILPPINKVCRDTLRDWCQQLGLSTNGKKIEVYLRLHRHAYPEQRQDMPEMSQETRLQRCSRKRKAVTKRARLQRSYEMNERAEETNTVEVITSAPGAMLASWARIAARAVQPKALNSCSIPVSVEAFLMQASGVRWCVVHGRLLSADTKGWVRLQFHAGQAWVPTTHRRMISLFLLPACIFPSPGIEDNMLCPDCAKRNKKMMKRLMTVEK

[2] = molecular target: T2, developmental pluripotency-associated 4 (DPPA4) (human (endogenous in NCI-H661)) (UniProt Q7L190); assay: affinity purification with mass spectrometry; RIME: chromatin double-cross-linked before immunoprecipitation with DPPA2/4 antibodies or isotype-matched IgG controls; wild-type NCI-H661 clones (n = 2), CRISPR double-knockout clones (n = 2) as negative controls
T2 sequence: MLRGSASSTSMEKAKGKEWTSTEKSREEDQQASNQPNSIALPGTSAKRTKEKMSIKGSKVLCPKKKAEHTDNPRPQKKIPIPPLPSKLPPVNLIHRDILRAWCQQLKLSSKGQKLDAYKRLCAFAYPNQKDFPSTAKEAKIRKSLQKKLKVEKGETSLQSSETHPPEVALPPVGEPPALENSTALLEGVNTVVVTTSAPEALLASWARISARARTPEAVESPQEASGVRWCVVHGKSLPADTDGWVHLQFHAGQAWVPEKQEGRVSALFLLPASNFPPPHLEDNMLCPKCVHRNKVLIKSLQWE

[3] = molecular target: T2, developmental pluripotency-associated 4 (DPPA4) (human (endogenous in NCI-H661)); assay: affinity purification with mass spectrometry; IP of endogenous DPPA2 or DPPA4 from NCI-H661 whole-cell lysates, species-matched IgG IP control, label-free quantitation, n = 4 per condition
[4] = molecular target: T1, developmental pluripotency-associated 2 (DPPA2) (human (endogenous in NCI-H661)); assay: as above; remark: listed apart in the source

MTF2 from the Polycomb repressive complex 2 (from UniProt Q9Y483 1-593)
binding [1]: binds

CBX8 (a component of the canonical PRC1 complex) (from UniProt Q9HC52 1-389)
binding [2]: binds

B1: recombinant DPPA2-Myc/FLAG protein (natural protein, human, UniProt Q7Z7J5 1-298, looked up)
chain: T1 sequence
notes: DPPA2, human, recombinant; The construct is named only in the EMSA legend; source: recombinant
binding [3]: binds

B2: developmental pluripotency-associated 4 (DPPA4) (natural protein, human (endogenous in NCI-H661), UniProt Q7L190 1-304, looked up)
chain: T2 sequence
notes: DPPA4, human, endogenous in NCI-H661 non-small cell lung cancer cells; source: endogenous, NCI-H661 whole-cell lysate (IP-MS); endogenous, NCI-H661 double-cross-linked chromatin (RIME)
binding [4]: binds

B3: lysine demethylase KDM2A (protein, UniProt Q9Y2K7 1-1162)
chain: MEPEEERIRYSQRLRGTMRRRYEDDGISDDEIEGKRTFDLEEKLHTNKYNANFVTFMEGKDFNVEYIQRGGLRDPLIFKNSDGLGIKMPDPDFTVNDVKMCVGSRRMVDVMDVNTQKGIEMTMAQWTRYYETPEEEREKLYNVISLEFSHTRLENMVQRPSTVDFIDWVDNMWPRHLKESQTESTNAILEMQYPKVQKYCLMSVRGCYTDFHVDFGGTSVWYHIHQGGKVFWLIPPTAHNLELYENWLLSGKQGDIFLGDRVSDCQRIELKQGYTFVIPSGWIHAVYTPTDTLVFGGNFLHSFNIPMQLKIYNIEDRTRVPNKFRYPFYYEMCWYVLERYVYCITNRSHLTKEFQKESLSMDLELNGLESGNGDEEAVDREPRRLSSRRSVLTSPVANGVNLDYDGLGKTCRSLPSLKKTLAGDSSSDCSRGSHNGQVWDPQCAPRKDRQVHLTHFELEGLRCLVDKLESLPLHKKCVPTGIEDEDALIADVKILLEELANSDPKLALTGVPIVQWPKRDKLKFPTRPKVRVPTIPITKPHTMKPAPRLTPVRPAAASPIVSGARRRRVRCRKCKACVQGECGVCHYCRDMKKFGGPGRMKQSCVLRQCLAPRLPHSVTCSLCGEVDQNEETQDFEKKLMECCICNEIVHPGCLQMDGEGLLNEELPNCWECPKCYQEDSSEKAQKRKMEESDEEAVQAKVLRPLRSCDEPLTPPPHSPTSMLQLIHDPVSPRGMVTRSSPGAGPSDHHSASRDERFKRRQLLRLQATERTMVREKENNPSGKKELSEVEKAKIRGSYLTVTLQRPTKELHGTSIVPKLQAITASSANLRHSPRVLVQHCPARTPQRGDEEGLGGEEEEEEEEEEEDDSAEEGGAARLNGRGSWAQDGDESWMQREVWMSVFRYLSRRELCECMRVCKTWYKWCCDKRLWTKIDLSRCKAIVPQALSGIIKRQPVSLDLSWTNISKKQLTWLVNRLPGLKDLLLAGCSWSAVSALSTSSCPLLRTLDLRWAVGIKDPQIRDLLTPPADKPGQDNRSKLRNMTDFRLAGLDITDATLRLIIRHMPLLSRLDLSHCSHLTDQSSNLLTAVGSSTRYSLTELNMAGCNKLTDQTLIYLRRIANVTLIDLRGCKQITRKACEHFISDLSINSLYCLSDEKLIQKIS
binding [4]: binds
